Laboratory results from ChEMBL document CHEMBL5674883, “The Heterochromatin Landscape in Migrating Cells and the Importance of H3K27me3 for Associated Transcriptome Alterations” (Cells, 2018).
This continues a long series; more values of the same kind are listed elsewhere.

Amino acid sequences for entries named in this document (tags omitted).
UniProt Q61188, whole entry: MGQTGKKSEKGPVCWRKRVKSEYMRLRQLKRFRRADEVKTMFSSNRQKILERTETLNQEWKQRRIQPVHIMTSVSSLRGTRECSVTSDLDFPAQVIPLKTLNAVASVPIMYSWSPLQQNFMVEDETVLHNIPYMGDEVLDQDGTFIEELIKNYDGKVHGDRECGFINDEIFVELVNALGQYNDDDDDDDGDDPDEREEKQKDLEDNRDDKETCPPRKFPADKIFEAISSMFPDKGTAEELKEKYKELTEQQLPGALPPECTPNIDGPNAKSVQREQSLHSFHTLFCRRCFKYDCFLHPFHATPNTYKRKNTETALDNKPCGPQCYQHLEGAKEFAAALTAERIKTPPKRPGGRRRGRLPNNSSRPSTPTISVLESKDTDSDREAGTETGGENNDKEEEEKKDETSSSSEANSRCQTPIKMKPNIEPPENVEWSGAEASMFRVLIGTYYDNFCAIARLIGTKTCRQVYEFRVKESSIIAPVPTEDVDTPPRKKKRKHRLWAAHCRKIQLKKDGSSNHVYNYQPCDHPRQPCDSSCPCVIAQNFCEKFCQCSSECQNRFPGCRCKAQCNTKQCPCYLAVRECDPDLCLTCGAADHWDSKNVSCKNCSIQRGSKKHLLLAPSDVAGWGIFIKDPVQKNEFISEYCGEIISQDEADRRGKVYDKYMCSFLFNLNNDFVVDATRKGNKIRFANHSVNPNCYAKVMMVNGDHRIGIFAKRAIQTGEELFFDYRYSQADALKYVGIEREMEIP

Experiments:
Assay type in all cases: cell-based
[1] = target: Histone-lysine N-methyltransferase EZH2 (Mus musculus) (UniProt Q61188); assay: Inhibition of EZH2 in mouse B16-F1 migrating cells assessed as fold change in H3K27me3-buffered regulated Slc12a7-mRNA expression at 3 uM measured by ChIP-seq analysis relative to control cells
[2] = target: Histone-lysine N-methyltransferase EZH2 (Mus musculus) (UniProt Q61188); assay: Inhibition of EZH2 in mouse B16-F1 migrating cells assessed as fold change in H3K27me3-buffered regulated Hmga2-mRNA expression at 3 uM measured by ChIP-seq analysis relative to control cells
[3] = target: Histone-lysine N-methyltransferase EZH2 (Mus musculus) (UniProt Q61188); assay: Inhibition of EZH2 in mouse B16-F1 migrating cells assessed as fold change in H3K27me3-buffered regulated Dlk2-mRNA expression at 3 uM measured by ChIP-seq analysis relative to control cells
[4] = target: Histone-lysine N-methyltransferase EZH2 (Mus musculus) (UniProt Q61188); assay: Inhibition of EZH2 in mouse B16-F1 migrating cells assessed as fold change in H3K27me3-independent regulated Rcn3-mRNA expression at 3 uM measured by ChIP-seq analysis relative to control cells
[5] = target: Histone-lysine N-methyltransferase EZH2 (Mus musculus) (UniProt Q61188); assay: Inhibition of EZH2 in mouse B16-F1 migrating cells assessed as fold change in H3K27me3-dependent regulated Zfp36-mRNA expression at 3 uM measured by ChIP-seq analysis relative to control cells
[6] = target: Histone-lysine N-methyltransferase EZH2 (Mus musculus) (UniProt Q61188); assay: Inhibition of EZH2 in mouse B16-F1 migrating cells assessed as fold change in H3K27me3-independent regulated Zfp654-mRNA expression at 3 uM measured by ChIP-seq analysis relative to control cells
[7] = target: Histone-lysine N-methyltransferase EZH2 (Mus musculus) (UniProt Q61188); assay: Inhibition of EZH2 in mouse B16-F1 migrating cells assessed as fold change in H3K27me3-buffered regulated Slc3a2-mRNA expression at 3 uM measured by ChIP-seq analysis relative to control cells
[8] = target: Histone-lysine N-methyltransferase EZH2 (Mus musculus) (UniProt Q61188); assay: Inhibition of EZH2 in mouse B16-F1 migrating cells assessed as fold change in H3K27me3-buffered regulated Gas1-mRNA expression at 3 uM measured by ChIP-seq analysis relative to control cells
[9] = target: Histone-lysine N-methyltransferase EZH2 (Mus musculus) (UniProt Q61188); assay: Inhibition of EZH2 in mouse B16-F1 migrating cells assessed as fold change in H3K27me3-buffered regulated 2700081O15Rik-mRNA expression at 3 uM measured by ChIP-seq analysis relative to control cells
[10] = target: Histone-lysine N-methyltransferase EZH2 (Mus musculus) (UniProt Q61188); assay: Inhibition of EZH2 in mouse B16-F1 migrating cells assessed as fold change in H3K27me3-buffered regulated 9330159F19Rik-mRNA expression at 3 uM measured by ChIP-seq analysis relative to control cells
[11] = target: Histone-lysine N-methyltransferase EZH2 (Mus musculus) (UniProt Q61188); assay: Inhibition of EZH2 in mouse B16-F1 migrating cells assessed as fold change in H3K27me3-buffered regulated Des-mRNA expression at 3 uM measured by ChIP-seq analysis relative to control cells
[12] = target: Histone-lysine N-methyltransferase EZH2 (Mus musculus) (UniProt Q61188); assay: Inhibition of EZH2 in mouse B16-F1 migrating cells assessed as fold change in H3K27me3-independent regulated Ak4-mRNA expression at 3 uM measured by ChIP-seq analysis relative to control cells
[13] = target: Histone-lysine N-methyltransferase EZH2 (Mus musculus) (UniProt Q61188); assay: Inhibition of EZH2 in mouse B16-F1 migrating cells assessed as fold change in H3K27me3-dependent regulated Osgin1-mRNA expression at 3 uM measured by ChIP-seq analysis relative to control cells
[14] = target: T1, RNA polymerase II (Mus musculus) (UniProt P08775+Q8CFI7+P97760+A0A3Q4L2S8+Q80UW8+P61219+P62488+Q923G2+P60898+O08740+Q63871+P62876); assay: Inhibition of RNA polymerase II in mouse B16-F1 migrating cells assessed as fold change in Jmjd1c-RNA stability at 0.1 mM measured by ChIP-seq analysis relative to control cells
[15] = target: T1, RNA polymerase II (Mus musculus); assay: Inhibition of RNA polymerase II in mouse B16-F1 migrating cells assessed as fold change in Dyrk1a-RNA stability at 0.1 mM measured by ChIP-seq analysis relative to control cells
[16] = target: T1, RNA polymerase II (Mus musculus); assay: Inhibition of RNA polymerase II in mouse B16-F1 migrating cells assessed as fold change in Srp54b-RNA stability at 0.1 mM measured by ChIP-seq analysis relative to control cells
[17] = target: T1, RNA polymerase II (Mus musculus); assay: Inhibition of RNA polymerase II in mouse B16-F1 migrating cells assessed as fold change in Angpt2-RNA stability at 0.1 mM measured by ChIP-seq analysis relative to control cells
[18] = target: T1, RNA polymerase II (Mus musculus); assay: Inhibition of RNA polymerase II in mouse B16-F1 migrating cells assessed as fold change in Rbbp8-RNA stability at 0.1 mM measured by ChIP-seq analysis relative to control cells
[19] = target: T1, RNA polymerase II (Mus musculus); assay: Inhibition of RNA polymerase II in mouse B16-F1 migrating cells assessed as fold change in Strbp-RNA stability at 0.1 mM measured by ChIP-seq analysis relative to control cells
[20] = target: T1, RNA polymerase II (Mus musculus); assay: Inhibition of RNA polymerase II in mouse B16-F1 migrating cells assessed as fold change in Ctage5-RNA stability at 0.1 mM measured by ChIP-seq analysis relative to control cells
[21] = target: T1, RNA polymerase II (Mus musculus); assay: Inhibition of RNA polymerase II in mouse B16-F1 migrating cells assessed as fold change in Cadm1-RNA stability at 0.1 mM measured by ChIP-seq analysis relative to control cells
[22] = target: T1, RNA polymerase II (Mus musculus); assay: Inhibition of RNA polymerase II in mouse B16-F1 migrating cells assessed as fold change in Rock2-RNA stability at 0.1 mM measured by ChIP-seq analysis relative to control cells
[23] = target: T1, RNA polymerase II (Mus musculus); assay: Inhibition of RNA polymerase II in mouse B16-F1 migrating cells assessed as fold change in Snx17-RNA stability at 0.1 mM measured by ChIP-seq analysis relative to control cells
[24] = target: T1, RNA polymerase II (Mus musculus); assay: Inhibition of RNA polymerase II in mouse B16-F1 migrating cells assessed as fold change in Rap1a-RNA stability at 0.1 mM measured by ChIP-seq analysis relative to control cells
[25] = target: T1, RNA polymerase II (Mus musculus); assay: Inhibition of RNA polymerase II in mouse B16-F1 migrating cells assessed as fold change in Rbpms-RNA stability at 0.1 mM measured by ChIP-seq analysis relative to control cells
[26] = target: T1, RNA polymerase II (Mus musculus); assay: Inhibition of RNA polymerase II in mouse B16-F1 migrating cells assessed as fold change in Cdh19-RNA stability at 0.1 mM measured by ChIP-seq analysis relative to control cells
[27] = target: T1, RNA polymerase II (Mus musculus); assay: Inhibition of RNA polymerase II in mouse B16-F1 migrating cells assessed as fold change in Ppp1r11-RNA stability at 0.1 mM measured by ChIP-seq analysis relative to control cells
[28] = target: T1, RNA polymerase II (Mus musculus); assay: Inhibition of RNA polymerase II in mouse B16-F1 migrating cells assessed as fold change in Slc25a40-RNA stability at 0.1 mM measured by ChIP-seq analysis relative to control cells
[29] = target: T1, RNA polymerase II (Mus musculus); assay: Inhibition of RNA polymerase II in mouse B16-F1 migrating cells assessed as fold change in Papola-RNA stability at 0.1 mM measured by ChIP-seq analysis relative to control cells
[30] = target: T1, RNA polymerase II (Mus musculus); assay: Inhibition of RNA polymerase II in mouse B16-F1 migrating cells assessed as fold change in Sytl2-RNA stability at 0.1 mM measured by ChIP-seq analysis relative to control cells

CCCc1cc(C)[nH]c(=O)c1CNC(=O)c1cc(-c2ccnc(N3CCN(C)CC3)c2)cc2c1cnn2C(C)C
log2FC [1]: -0.38
log2FC [2]: -0.56
log2FC [3]: -0.86
log2FC [4]: 0.57
log2FC [5]: 0.09
log2FC [6]: -0.43
log2FC [7]: 0.5
log2FC [8]: -1.11
log2FC [9]: -0.42
log2FC [10]: -1.1
log2FC [11]: 0.47
log2FC [12]: -0.92
log2FC [13]: 0

OC[C@H]1O[C@@H](n2cnc3cc(Cl)c(Cl)cc32)[C@H](O)[C@@H]1O
log2FC [14]: -0.56
log2FC [15]: -0.42
log2FC [16]: -0.47
log2FC [17]: -0.43
log2FC [18]: -0.69
log2FC [19]: -0.57
log2FC [20]: -0.46
log2FC [21]: -0.41
log2FC [22]: -0.73
log2FC [23]: 0.39
log2FC [24]: -0.48
log2FC [25]: 0.55
log2FC [26]: -0.52
log2FC [27]: 0.4
log2FC [28]: -0.63
log2FC [29]: -0.43
log2FC [30]: -0.43
